The data set concerns rat whole brain proteins. The experiment in a line: Rat whole brain photo-cross-linking, biotin-streptavidin pulldown and LC/MS proteomics (interactome). Conditions: probe 50 μM; proteins also identified with control 16 removed as background. The data set is classed as binding, Sprague Dawley rat. The text has this:
Whole brain assays were designed to assay the binding partners of 5 and 7, as well as a control for the inherent binding of the benzophenone cross-linker using molecule 16 (Figure 7). […] We chose this methodology to maximize the amount of unique hits we were likely to record. A drawback to this assay, however, is that GPCRs need highly specific extraction/purification conditions to be detected by LC-MS (or other protein detection methodologies) at the end point. Thus, by biasing our assay toward a “wide lens” to record a picture of diverse interactions, we missed the specific focus necessary to observe DRD2 and structurally related GPCRs, and we were unable to directly observe DRD2 in the proteomic analysis.
To perform the assay, the whole brain minus the olfactory bulb from an adult female Sprague Dawley rat was homogenized and treated with probes or linker control 16 at a 50 μM concentration and photo-cross-linked. A streptavidin resin was used to deplete endogenous biotin and then clicked with azido biotin, followed by streptavidin pulldown. The streptavidin beads were processed by tryptic digest, followed by LC/MS proteomic analysis. Proteins identified in both control 16 and the 5 and 7 treated samples were removed as background (for full results, see the Supporting Information, Excel File 2). […] All targets (peptides and proteins) were identified with a maximum false discovery rate of 5% or a q-value of >0.05. Most peptides and proteins were identified with a false discovery rate of 1%, q-value of >0.01 (Supporting Information, Excel File 2).
To prepare the homogenate, adult rat brain tissue was microdissected and the olfactory bulb was discarded and sliced into 1 mm pieces. The pieces were suspended in a phosphate-based NP-40 lysis buffer (150 mM NaCl, 50 mM phosphate, 1% NP-40, pH 8.0), homogenized with a handheld homogenizer (IKA T-18 digital homogenizer), and incubated on ice for 30 min. The homogenate was then cleared via centrifugation (16,000g, 20 min), and the supernatant was reserved. The total protein concentration was determined via BCA assay (Pierce) and adjusted to 6 mg/mL. Probe solutions at a concentration of 5 mM were prepared in sterile-filtered HBSS and were added to protein solutions to a final concentration of 50 μM. Samples were inverted 3× to mix and irradiated with a 365 nm UV lamp (8 W, 2 cm distance) for 30 min at room temperature. Samples were then buffer-swapped (10k MWCO, Pierce) into fresh phosphate-based NP-40 lysis buffer and freshly premixed Click-iT Kit (Invitrogen) reaction buffer (1× reaction buffer, 50 μM PC biotin azide (Click Chemistry Tools), 70:30 CuSO4/copper protectant, 1× reaction buffer additive) and incubated in the dark with constant shaking for 30 min at room temperature. […]

Regarding `C#CCOc1ccc(C(=O)c2ccc(CN[C@H]3CCc4nc(N)sc4C3)cc2)cc1` [Compound 7, (S)-(4-(((2-Amino-4,5,6,7-tetrahydrobenzo[d]thiazol-6-yl)amino)methyl)phenyl)(4-(prop-2-yn-1-yloxy)phenyl)methanone], the “number of proteins in common between probes 5 and 7” value is 58; the “number of proteins unique to the probe” value is recorded as 57.

Turning to `C#CCOc1ccc(C(=O)c2ccc(CNCCc3cccc4c3CC(=O)N4)cc2)cc1` [Compound 5, 4-(2-((4-(4-(Prop-2-yn-1-yloxy)benzoyl)benzyl)amino)ethyl)indolin-2-one], the “number of proteins in common between probes 5 and 7” value is reported as 58; the “number of proteins unique to the probe” value was 81.

(Values after article PMC9585581, “Developing Photoaffinity Probes for Dopamine Receptor D2 to Determine Targets of Parkinson’s Disease Drugs” (ACS Chemical Neuroscience, 2022).)
